Laboratory results taken from patent publication US4748232A, “Peptide production and use thereof” (Suntory Limited, priority 1983, dated 1988).

Tested on: Male rats
Test: Diuretic and natriuretic action in anesthetized rats (urine collected via bladder cannula)
Assay type: in vivo, rat
Details: 1.21 μ mole, group V
Procedure: Male rats weighing 300 to 400 grams were anesthetized by intraperitoneal administration of pentobarbital at a dosage of 60 mg/kg, and used for tests of the α-hANP according to the method described in Life Sciences, Vol. 28, pp 89-94.
To keep the respiratory tract open, a tracheal cannula (PE-240 Clay-Adams) was inserted into the trachea. An arterial cannula (PE-50) was inserted into a femoral artery for measurement of the blood pressure, and a venous cannula was inserted into a femoral vein for the administration of Ringer's solution. 1.2 ml of Ringer's solution was injected for ten minutes, and subsequently, was constantly infused at a flow rate of 1.2 ml/hour.
A bladder cannula made of silastic tube with an inner diameter of 0.02 inches and an outer diameter of 0.037 inches was inserted into the bladder, and via the cannula, a urine sample was collected into a test tube. The collection of urine was carried out for 30 minutes before administration of the test compound, and every five minutes after the administration.
A predetermined amount of the test compound α-hANP was dissolved in 50 μl of sterilized physiological saline with 5 μg of bacitracin, and the solution was injected into the jugular vein.
The amount of α-hANP administered was 0.1 n mole (group II), 0.2 n mole (group III), or 0.4 n mole (group IV). The control group (group I) was administered 50 μl of physiological saline containing only bacitracin. For comparison, group V received 50 μl of physiological saline containing bacitracin and 1.21μ mole of furosemide, which is a known natriuretic agent.
Groups I to IV each consisted of three animals, and group V consisted of four animals.

SMILES: NS(=O)(=O)c1cc(C(=O)O)c(NCc2ccco2)cc1Cl [Furosemide, furosemide]
- Cl Excretion A (5 minutes after administration): 40242 ± 6859 n eq/min
- K Excretion A (5 minutes after administration): 6897 ± 392 n eq/min
- Na Excretion A (5 minutes after administration): 20018 ± 2990 n eq/min
- Na/K ratio A (5 minutes after administration): 2.90
- Cl Excretion B (before administration): 1708 ± 334 n eq/min
- K Excretion B (before administration): 1945 ± 465 n eq/min
- Na Excretion B (before administration): 1134 ± 283 n eq/min
- Na/K ratio B (before administration): 0.58
